Patent US9499529B2 (California State University Fresno, priority 2013, dated 2016)
Entries after “also recorded” stand apart in the source; their conditions may differ. Read-outs that look alike come from different tables or passages of the source. Some of these results come from one statement about several compounds together.

Tests used:
Type in all cases: cell-based, human
[1] = test system: PC-3 prostate cancer cells; experiment: In vitro cytotoxicity against PC-3 prostate cancer cells; conditions: PC-3 cells; for IC50: five days
Experimental: (§1) The half maximal inhibitory concentration (IC50) is a measure of the effectiveness of a substance in inhibiting a specific biological or biochemical function. It is commonly used as a measure of antagonist drug potency.
Cell cultures were maintained in 5% carbon dioxide at a temperature of 37° C. […] Cell numbers were counted with a cell viability analyzer (Beckman-Coulter). […] A preliminary dose response curve was prepared from the collected data by means well known to those of ordinary skill in the art.
(§2) The six different concentrations fell within a selected linear concentration range determined by reference to the preliminary dose response curve and efforts to estimate the concentration at which 50% of the cell growth would be inhibited. The selected six different concentrations were used to further fill out the dose response curve to pinpoint a more exact IC50 value.

[2] = test system: DU-145 prostate cancer cells; experiment: In vitro cytotoxicity against DU-145 prostate cancer cells; conditions: DU-145 cells, five days
Experimental: as §1
Cell numbers were counted with a cell viability analyzer (Beckman-Coulter).
(§3) A preliminary dose response curve was prepared from the collected data by means well known to those of ordinary skill in the art.
as §2

[3] = test system: HeLa cervical cancer cells; experiment: HeLa cell viability after treatment with analog (cell count, cell viability analyzer); conditions: 10 μM and 1 μM, three days
Experimental: Cell numbers were counted with a cell viability analyzer (Beckman-Coulter). The ratio of drug treated viable cell numbers to control vehicle (DMSO) treated viable cell numbers was defined as percentage viability. […] Compound nos.
The HeLa cells used in the experiments summarized by Table 5 were cultured in RPMI-1640 medium supplemented with 10% FBS, 4 mM glutamine, 1 mM sodium pyruvate, 100 IU/mL penicillin, 100 ug/mL streptomycin and 0.25 ug/mL amphotericin. The HeLa cells were plated in 24-well plates at a density of 20,000 cells in each well in 10% FBS RPMI-1640. […] Cell numbers were counted with a cell viability analyzer (Beckman-Coulter). […]

[4] = test system: HeLa cervical cancer cells; experiment: In vitro cytotoxicity against HeLa cervical cancer cells; conditions: for IC50: three days
Experimental: as §1
Cell numbers were counted with a cell viability analyzer (Beckman-Coulter). The ratio of drug treated viable cell numbers to vehicle treated viable cell numbers was defined as percentage viability.
as §3, §2

Compound: CC(C)n1ccnc1C=C1CN(C)CC(=Cc2nccn2C(C)C)C1=O [Compound 1]
- IC50 ([1]; listed as compound 1): < 1980 nM
- IC50 (curcumin)/IC50 (analog) ([1]; listed as compound 1): greater than 1
- IC50 ([2]; listed as compound 1): < 300 nM

Compound: CCC(C)n1ccnc1C=C1CN(C)CC(=Cc2nccn2C(C)CC)C1=O (stereo not drawn) [Compound 2]
- IC50 ([2]; listed as compound 2): < 300 nM

Compound: CN1CC(=Cc2ccnn2C)C(=O)C(=Cc2ccnn2C)C1 [Compound 4]
- IC50 ([1]; listed as compound 4): < 1980 nM
- IC50 (curcumin)/IC50 (analog) ([1]; listed as compound 4): greater than 1

Compound: CN1CC(=Cc2nccs2)C(=O)C(=Cc2nccs2)C1 [Compound 5]
- IC50 ([1]; listed as compound 5): < 1980 nM
- IC50 (curcumin)/IC50 (analog) ([1]; listed as compound 5): greater than 1
- IC50 ([2]; listed as compound 5): < 300 nM
- decrease of HeLa cervical cancer cell viability (in words) [3]: decrease the number of HeLa cervical cancer cells still alive after three days

Compound: CN1CC(=Cc2cscn2)C(=O)C(=Cc2cscn2)C1 [Compound 6]
- IC50 (curcumin)/IC50 (analog) ([4]; listed as compound 6): greater than 13
- IC50 ([4]; listed as compound 6): < 10500 nM
- IC50 ([1]; listed as compound 6): < 1980 nM
- IC50 (curcumin)/IC50 (analog) ([1]; listed as compound 6): greater than 1
- decrease of HeLa cervical cancer cell viability (in words) [3]: decrease the number of HeLa cervical cancer cells still alive after three days

Compound: Cc1nc(C=C2CN(C)CC(=Cc3coc(C)n3)C2=O)co1 [Compound 7]
- IC50 ([1]; listed as compound 7): < 1980 nM
- IC50 (curcumin)/IC50 (analog) ([1]; listed as compound 7): greater than 1
- IC50 ([2]; listed as compound 7): < 300 nM
- decrease of HeLa cervical cancer cell viability (in words) [3]: decrease the number of HeLa cervical cancer cells still alive after three days

Compound: Cc1cc(C=C2CN(C)CC(=Cc3cc(C)no3)C2=O)on1 [Compound 9]
- IC50 (curcumin)/IC50 (analog) [1]: greater than 1
- IC50 ([1]; listed as compound 9): < 1980 nM
- decrease of HeLa cervical cancer cell viability (in words) [3]: decrease the number of HeLa cervical cancer cells still alive after three days

Compound: CC(C)n1ccnc1C=C1CCCC(=Cc2nccn2C(C)C)C1=O [Compound 10]
- IC50 (curcumin)/IC50 (analog) [1]: greater than 1
- IC50 ([1]; listed as compound 10): < 1980 nM
- IC50 ([2]; listed as compound 10): < 300 nM

Compound: CCC(C)n1ccnc1C=C1CCCC(=Cc2nccn2C(C)CC)C1=O (stereo not drawn) [Compound 11]
- IC50 ([1]; listed as compound 11): < 1980 nM
- IC50 (curcumin)/IC50 (analog) ([1]; listed as compound 11): greater than 1
- IC50 ([2]; listed as compound 11): < 300 nM

Compound: CC(C)Cn1ccnc1C=C1CCCC(=Cc2nccn2CC(C)C)C1=O [Compound 12]
- IC50 ([1]; listed as compound 12): < 1980 nM
- IC50 (curcumin)/IC50 (analog) ([1]; listed as compound 12): greater than 1

Compound: Cn1nccc1C=C1CCCC(=Cc2ccnn2C)C1=O [Compound 14]
- IC50 ([1]; listed as compound 14): < 1980 nM
- IC50 (curcumin)/IC50 (analog) ([1]; listed as compound 14): greater than 1
- decrease of HeLa cervical cancer cell viability (in words) [3]: decrease the number of HeLa cervical cancer cells still alive after three days

Compound: O=C1C(=Cc2nccs2)CCCC1=Cc1nccs1 [Compound 15]
- IC50 ([1]; listed as compound 15): < 1980 nM
- IC50 (curcumin)/IC50 (analog) ([1]; listed as compound 15): greater than 1
- IC50 ([2]; listed as compound 15): < 300 nM
- decrease of HeLa cervical cancer cell viability (in words) [3]: decrease the number of HeLa cervical cancer cells still alive after three days

Compound: O=C1C(=Cc2cscn2)CCCC1=Cc1cscn1 [Compound 16]
- IC50 ([1]; listed as compound 16): < 1980 nM
- IC50 (curcumin)/IC50 (analog) ([1]; listed as compound 16): greater than 1
- IC50 ([2]; listed as compound 16): < 300 nM
- decrease of HeLa cervical cancer cell viability (in words) [3]: decrease the number of HeLa cervical cancer cells still alive after three days

Compound: Cc1nc(C=C2CCCC(=Cc3coc(C)n3)C2=O)co1 [Compound 17]
- IC50 ([1]; listed as compound 17): < 1980 nM
- IC50 (curcumin)/IC50 (analog) ([1]; listed as compound 17): greater than 1
- decrease of HeLa cervical cancer cell viability (in words) [3]: decrease the number of HeLa cervical cancer cells still alive after three days

Compound: Cc1cc(C=C2CCCC(=Cc3cc(C)no3)C2=O)on1 [Compound 19]
- IC50 (curcumin)/IC50 (analog) [1]: greater than 1
- IC50 ([1]; listed as compound 19): < 1980 nM
- decrease of HeLa cervical cancer cell viability (in words) [3]: decrease the number of HeLa cervical cancer cells still alive after three days

Compound: CC(C)n1ccnc1/C=C/C(=O)/C=C/c1nccn1C(C)C [Compound 20]
- IC50 (curcumin)/IC50 (analog) ([4]; listed as compound 20): greater than 13
- IC50 ([4]; listed as compound 20): < 10500 nM
- IC50 (curcumin)/IC50 (analog) [1]: greater than 1
- IC50 ([1]; listed as compound 20): < 1980 nM
- IC50 ([2]; listed as compound 20): < 300 nM
- decrease of HeLa cervical cancer cell viability (in words) [3]: decrease the number of HeLa cervical cancer cells still alive after three days

Compound: Cn1nccc1/C=C/C(=O)/C=C/c1ccnn1C [Compound 23]
- IC50 (curcumin)/IC50 (analog) [1]: greater than 1
- IC50 ([1]; listed as compound 23): < 1980 nM
- IC50 ([2]; listed as compound 23): < 300 nM
- decrease of HeLa cervical cancer cell viability (in words) [3]: decrease the number of HeLa cervical cancer cells still alive after three days

Compound: O=C(/C=C/c1nccs1)/C=C/c1nccs1 [Compound 24]
- IC50 (curcumin)/IC50 (analog) [1]: greater than 1
- IC50 ([1]; listed as compound 24): < 1980 nM
- IC50 ([2]; listed as compound 24): < 300 nM
- decrease of HeLa cervical cancer cell viability (in words) [3]: decrease the number of HeLa cervical cancer cells still alive after three days

Compound: O=C(/C=C/c1cscn1)/C=C/c1cscn1 [Compound 25]
- IC50 (curcumin)/IC50 (analog) [1]: greater than 1
- IC50 ([1]; listed as compound 25): < 1980 nM
- IC50 ([2]; listed as compound 25): < 300 nM
- decrease of HeLa cervical cancer cell viability (in words) [3]: decrease the number of HeLa cervical cancer cells still alive after three days

Compound: Cc1nc(/C=C/C(=O)/C=C/c2coc(C)n2)co1 [Compound 26]
- IC50 ([1]; listed as compound 26): < 1980 nM
- IC50 (curcumin)/IC50 (analog) ([1]; listed as compound 26): greater than 1
- decrease of HeLa cervical cancer cell viability (in words) [3]: decrease the number of HeLa cervical cancer cells still alive after three days

Compound: Cc1cc(/C=C/C(=O)/C=C/c2cc(C)on2)no1 [Compound 27]
- IC50 (curcumin)/IC50 (analog) [4]: greater than 13
- IC50 ([4]; listed as compound 27): < 10500 nM
- IC50 ([1]; listed as compound 27): < 1980 nM
- IC50 (curcumin)/IC50 (analog) ([1]; listed as compound 27): greater than 1
- IC50 ([2]; listed as compound 27): < 300 nM
- decrease of HeLa cervical cancer cell viability (in words) [3]: decrease the number of HeLa cervical cancer cells still alive after three days

Compound: CCC(CC)n1ccnc1/C=C/C(=O)/C=C/c1nccn1C(CC)CC [Compound 32]
- IC50 (curcumin)/IC50 (analog) [4]: greater than 13
- IC50 ([4]; listed as compound 32): < 10500 nM
- decrease of HeLa cervical cancer cell viability (in words) [3]: decrease the number of HeLa cervical cancer cells still alive after three days

Compound: CC(C)CCn1ccnc1/C=C/C(=O)/C=C/c1nccn1CCC(C)C [Compound 33]
- IC50 (curcumin)/IC50 (analog) [4]: greater than 13
- IC50 ([4]; listed as compound 33): < 10500 nM
- decrease of HeLa cervical cancer cell viability (in words) [3]: decrease the number of HeLa cervical cancer cells still alive after three days

Compound: CCCC(C)n1ccnc1/C=C/C(=O)/C=C/c1nccn1C(C)CCC (stereo not drawn) [Compound 34]
- IC50 (curcumin)/IC50 (analog) [4]: greater than 13
- IC50 ([4]; listed as compound 34): < 10500 nM
- decrease of HeLa cervical cancer cell viability (in words) [3]: decrease the number of HeLa cervical cancer cells still alive after three days

Compound: CCCCCCn1ccnc1/C=C/C(=O)/C=C/c1nccn1CCCCCC [Compound 35]
- IC50 (curcumin)/IC50 (analog) ([4]; listed as compound 35): greater than 13
- IC50 ([4]; listed as compound 35): < 10500 nM
- decrease of HeLa cervical cancer cell viability (in words) [3]: decrease the number of HeLa cervical cancer cells still alive after three days

Compound: CC(C)Cn1c(/C=C/C(=O)/C=C/c2nc3ccccc3n2CC(C)C)nc2ccccc21 [Compound 41]
- IC50 (curcumin)/IC50 (analog) [4]: greater than 13
- IC50 ([4]; listed as compound 41): < 10500 nM
- decrease of HeLa cervical cancer cell viability (in words) [3]: decrease the number of HeLa cervical cancer cells still alive after three days

Compound: CCCCCCn1cnc2ccc(/C=C/C(=O)/C=C/c3ccc4ncn(CCCCCC)c4c3)cc21 [Compound 46]
- decrease of HeLa cervical cancer cell viability (in words) [3]: decrease the number of HeLa cervical cancer cells still alive after three days; also recorded: reduce significantly the percentage viability
